From the supplement of paper PMC3334620
The full ranking holds about 33,000 sequences; the median of “E-score (-0.5 to 0.5)” is about -0.015, and the highest 2% start at about 0.3. This is one part of the list.

Target: T1, Abf1 (UniProt P14164)
T1 sequence: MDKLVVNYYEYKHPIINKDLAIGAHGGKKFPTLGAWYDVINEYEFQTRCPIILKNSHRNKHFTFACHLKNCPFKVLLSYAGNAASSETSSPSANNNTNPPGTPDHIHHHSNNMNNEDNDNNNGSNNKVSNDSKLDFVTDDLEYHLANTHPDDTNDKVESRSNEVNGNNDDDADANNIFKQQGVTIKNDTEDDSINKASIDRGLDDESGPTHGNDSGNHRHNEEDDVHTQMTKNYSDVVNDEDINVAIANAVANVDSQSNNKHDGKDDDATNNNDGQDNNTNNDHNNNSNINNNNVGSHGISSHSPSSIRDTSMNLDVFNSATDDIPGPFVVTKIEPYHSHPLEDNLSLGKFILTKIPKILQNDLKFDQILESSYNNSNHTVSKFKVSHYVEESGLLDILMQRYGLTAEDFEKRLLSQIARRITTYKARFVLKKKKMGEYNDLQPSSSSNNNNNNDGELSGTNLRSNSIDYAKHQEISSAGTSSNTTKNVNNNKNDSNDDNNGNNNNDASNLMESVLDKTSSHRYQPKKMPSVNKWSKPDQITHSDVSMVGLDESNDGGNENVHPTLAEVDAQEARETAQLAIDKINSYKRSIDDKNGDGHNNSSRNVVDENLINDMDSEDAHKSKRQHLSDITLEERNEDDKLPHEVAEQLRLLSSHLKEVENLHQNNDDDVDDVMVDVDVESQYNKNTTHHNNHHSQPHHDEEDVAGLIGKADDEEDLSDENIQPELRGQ
Test: PBM E-score (8-mer binding enrichment) (E-score (-0.5 to 0.5)); higher = stronger / more preferred TF binding
Details: protein concentration: 200 nM; construct: GST-full length
Outline: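 Yeast transcription factors, full-length or as DNA-binding domains, were expressed with a GST tag using PURExpress in vitro transcription/translation. At about 100-200 nM they were applied to universal all-10-mer Agilent arrays, double-stranded by primer extension on fresh or once-stripped slides. Fluorescent anti-GST detected bound protein, and masliner normalised the scans. E-scores for ungapped eight-base words, pooled with reverse complements, came from the Universal PBM Analysis Suite.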

In order of rising “PBM E-score” value:
1. CAAGGGCA  -0.398
2. GCCAGCCC  -0.375
3. AGCTGTAT  -0.356
4. ACGCCTCT  -0.332
5. ACCAAGGG  -0.308
6. GAGTCCGC  -0.305
7. AGCAGACA  -0.299
8. ACATGGGG  -0.293
9. CCCGGCGG  -0.29
10. CCTCTGCC  -0.263
11. GAGGCTAC  -0.23
12. ACCGAAGC  -0.223
13. AGCCTCCT  -0.222
14. AGCTCCAC  -0.216
15. CGAGCCTC  -0.215
16. AGGACTGG  -0.213
17. CCGCAGGA  -0.211
18. ACCCGAGG  -0.209
19. AGCACGCT  -0.202
20. AACACGCC  -0.202
21. GATGGCCC  -0.202
22. CAGCTCGG  -0.199
23. AGGCGAGC  -0.197
24. CGAGGGTC  -0.195
25. CCGCTAGC  -0.189
26. CTCTCTGC  -0.188
27. ACTACCGA  -0.183
28. GCGGGCCA  -0.179
29. CCACAGCC  -0.177
30. CCAGAAGG  -0.174
31. CGCGTTCA  -0.171
32. CCCATAAG  -0.167
33. GGGTGTAA  -0.157
34. AATGCCCG  -0.151
35. GCAGGAAC  -0.151
36. AAGACGCA  -0.15
37. GAAGGACC  -0.148
38. AACAGCGA  -0.147
39. CACCAGAG  -0.146
40. GCAACCCC  -0.144
41. ATGAGACC  -0.144
42. AGGGTGCC  -0.143
43. GAATAGCC  -0.137
44. GACCTCCC  -0.137
45. ACCAATAG  -0.133
46. CCCAGTCC  -0.132
47. GGCGAACA  -0.126
48. ATGTGGGA  -0.124
49. CACCTTAG  -0.124
50. AGCGAGGG  -0.124
51. CGAGTTTC  -0.122
52. GAACATTC  -0.121
53. ATTCCGCG  -0.121
54. ATTTGCCG  -0.12
55. CTCTCCTA  -0.117
56. CACAAAGG  -0.116
57. GCGCCCGA  -0.114
58. AGGAAGAC  -0.114
59. AGGGTGGC  -0.114
60. ATACATGC  -0.111
61. CGCTAACC  -0.108
62. ACAGAAGT  -0.106
63. TAGATGGA  -0.105
64. CACTCCCG  -0.104
65. GCTCTTTA  -0.103
66. TCCATGCA  -0.0997
67. AGTTTTAG  -0.0916
68. ACATTAGG  -0.0908
69. ACGCCATC  -0.0905
70. TCGGGGCA  -0.0893
71. CCTCCTAG  -0.0889
72. CCCACTGA  -0.0846
73. ATGGCGTA  -0.0835
74. ACGGACTC  -0.0811
75. ATCAAAGG  -0.0809
76. AATTTGCG  -0.0805
77. ATCCTAAA  -0.0804
78. AAATGAGC  -0.0797
79. AGTGCTTG  -0.0775
80. AGTGCGAC  -0.0741
81. CTCCAGAG  -0.074
82. AAATAAGG  -0.0719
83. ACCTTACC  -0.0706
84. ACCCTAGG  -0.07
85. ATCGGCGC  -0.0687
86. ATTCTTTC  -0.0665
87. ACGCCTCA  -0.0655
88. GGACGCAC  -0.0653
89. CACTCCGA  -0.0615
90. CTACTCCA  -0.0599
91. AACAGAAA  -0.0575
92. ACTCTACA  -0.0573
93. AGTGGTTG  -0.0565
94. ACTGAGAA  -0.055
95. ATGGCCAA  -0.0504
96. ACTCGCCT  -0.0504
97. GGATAAGA  -0.048
98. CAACGCAA  -0.0477
99. CACTGGAA  -0.0381
100. GTATCGGA  -0.0348
101. AAGCCAGA  -0.034
102. GGCCTGAC  -0.0336
103. CTAGCAAC  -0.0327
104. AACCTAAT  -0.0324
105. AGGCGACC  -0.0317
106. GCATTAAC  -0.0317
107. TCCACGCA  -0.0312
108. AAAGGTCG  -0.0258
109. GCTGTACA  -0.025
110. GCTAACAC  -0.0248
111. CGAAAGAA  -0.0243
112. CGTATCCA  -0.0211
113. GAGCGACC  -0.0178
114. GGGTATGA  -0.0169
115. CTTACGTC  -0.0145
116. GGACGCGA  -0.0137
117. CTGCCTGA  -0.0137
118. AATAGGCA  -0.0119
119. TCACCTGA  -0.00949
120. GCTACTTA  -0.00761
121. ACCCACGT  -0.00749
122. CATGCCGG  -0.00463
123. CCACCGAA  -0.00243
124. CGGGATTA  0.0022
125. GTTATGGA  0.00526
126. ACTGGAAA  0.00544
127. TCTTAAAA  0.00926
128. AAGCACCA  0.0116
129. GACAAGCA  0.0163
130. CCATGGAC  0.017
131. CCAAAAGA  0.0195
132. AGGCGTAT  0.0228
133. CGTACCTC  0.0233
134. CTCTTGTC  0.024
135. GAAGACTA  0.0253
136. ATAGTCAA  0.0287
137. CGAATGTC  0.0331
138. GGTATAAC  0.0343
139. ACGATGGC  0.0358
140. CACCGACG  0.0491
141. AATTATCC  0.0502
142. AGATTTAG  0.0517
143. ATGGTTTA  0.0544
144. AGCATTAG  0.0553
145. ATCGATCA  0.0584
146. ACGAAGGA  0.0584
147. GGACATGA  0.0626
148. AAATCAGC  0.0634
149. GTGCTTAA  0.0641
150. AATGGCTA  0.0665
151. ATTCGGCG  0.0671
152. ACTAACGG  0.0692
153. GTAGAATA  0.0756
154. GAAATGTC  0.0758
155. ATAAATGG  0.0835
156. CAAACCCA  0.0842
157. ACGAAGGC  0.085
158. GATAACAA  0.0871
159. AGTAAATC  0.0893
160. ACATTTAT  0.0922
161. ATGAACAA  0.0933
162. ACTGTAGG  0.0945
163. CTATGACA  0.0945
164. TAGCAACA  0.0959
165. AAGATTGA  0.0973
166. TACTGGGA  0.0985
167. CCGTAAAC  0.0995
168. CGGACAAG  0.1
169. GCAAGTCA  0.1
170. TCATCGGA  0.103
171. GTTAGCAA  0.104
172. CTTGACAA  0.104
173. GACTGAGA  0.105
174. CGCCGATA  0.108
175. ATCACAAT  0.113
176. ACTGACAA  0.129
177. GTTACTTA  0.133
178. GAGGCGAA  0.134
179. TGTGTTAA  0.134
180. ACAACTAA  0.135
181. ATATCCAC  0.141
182. AAACGGTA  0.141
183. AACATACG  0.144
184. GAATAGTA  0.145
185. CCATTATA  0.151
186. GAGCGAGA  0.153
187. AATTCAAA  0.155
188. CTTAGTAA  0.157
189. ACATTTTC  0.158
190. ACGGCGTG  0.161
191. CTCGTTGC  0.164
192. ACATGGTA  0.167
193. AATATGAA  0.172
194. ATTCATGA  0.173
195. TAGGATAA  0.183
196. GTACACAA  0.184
197. AAGCTCGT  0.191
198. ACGGACAT  0.191
199. GTACAACA  0.197
200. CGTCTTGA  0.199
201. ACGTGACG  0.201
202. ACACGATG  0.203
203. GGTCGCGA  0.206
204. ATCGTTGA  0.208
205. CTAAGAAG  0.227
206. TACATTAA  0.227
207. GTGTAATA  0.237
208. ATGACGAG  0.243
209. ACCTAATA  0.244
210. ACACGAAT  0.266
211. CACGGAAA  0.267
212. TCATTAAA  0.272
213. ATCGCGCG  0.276
214. GATCATCA  0.278
215. TAGCGACA  0.288
216. CGTCGTCC  0.307
217. ATCGTCAA  0.342
218. ATCGTCAC  0.389
219. GTGACATA  0.43
